Results reported in patent US7462598B2 (priority 2002, dated 2008).
For part of these data: Some peptides are written in HELM: one residue between dots, names in brackets for other building blocks, links after the first $. Bridge positions count the residues as written; N and C are the ends. Peptide text beside a SMILES is read from it.

Tests used:
human erythrocytes = assay: Hemolysis assay; assay type: cell-based; settings: for Selective index (H/M): ratio of H (3% hemolysis) over lowest MMC (M)
Procedure: For the hemolysis assay, the hemolytic activity of each peptide was determined by the method of Tam et al. (Tam et al., Eur. J. Biochem. 267:3289-3300 (2000)). Blood was obtained from a healthy donor in accordance to a protocol approved by the Institutional Review Board. Normal human serum was prepared from the same individual and stored at −20° C. Red blood cells (RBC) were prepared from blood collected in EDTA. RBC were harvested at 234×g for 10 min, 22° C., washed four times with 10 mM sodium phosphate, 150 mM NaCl, pH 7.4 (PBS), containing 4 mM EDTA and resuspended in PBS without EDTA. Peptides dissolved in 10 μl 0.01% HOAc were diluted with PBS to final concentrations of 0.3-100 μg/ml. RBC were added to a 2% final density in 100 μl. Incubation mixtures were also prepared with 10% serum. After 1 h incubation at 37° C., the cell suspensions were centrifuged at 234×g for 10 min, 22° C. Fifty-μl samples of the supernatants were removed, and the absorbance at 405 nm (A) was measured. Hemolytic activity of each peptide was calculated relative to lysis by 1% NP-40 using the following formula:
A selectivity index (SI=H/M) was calculated as a ratio of a peptide concentration (μg/ml) that causes 3% hemolysis (H) obtained from a dose-dependent hemolysis plot over 0.3 to 3 μg/ml of each peptide in PBS and the lowest MMC value (M) for any of the three test microorganisms (see Example II; Table 2).

[1] = general procedure: Fmoc solid-phase peptide synthesis; Fmoc-Arg(Pbf)-PEG-PS (peptide acids); Fmoc-PAL-PEG-PS (peptide amides); HATU/DIEA; Cys as pentafluorophenyl ester; settings: for cyclisation yield: cyclisation step; for final HPLC purity: whole synthesis, analytical RP-HPLC, scale of the general procedure 0.1 mmol

Q: With `CC(C)C[C@@H]1NC(=O)[C@@H]2CSSC[C@H](NC(=O)[C@H](CCCNC(=N)N)NC(=O)[C@@H]3CSSC[C@H](NC1=O)C(=O)N[C@@H](CCCNC(=N)N)C(=O)N[C@@H](CCCNC(=N)N)C(=O)NCC(=O)N[C@@H](C(C)C)C(=O)N3)C(=O)N[C@@H](CC(C)C)C(=O)N[C@H]1CSSC[C@H](NC(=O)[C@H](C(C)C)NC(=O)CNC(=O)[C@H](CCCNC(=N)N)NC(=O)[C@H](CCCNC(=N)N)NC1=O)C(=O)N[C@@H](CCCNC(=N)N)C(=O)N2` [RTD-3] (cyclo(CLCRRGVCRCLCRRGVCR); disulfide 1-10, 3-8, 12-17) as the molecule, how does the “Selective index (H/M)” value (human erythrocytes) read?
A: 6.3

Q: With `CC(C)C[C@H](NC(=O)[C@H](CCCNC(=N)N)NC(=O)CNC(=O)CN)C(=O)N[C@H]1CSSC[C@@H](C(=O)N[C@H](C(=O)NCC(=O)N[C@@H](CCCNC(=N)N)C(=O)N[C@@H](CCCNC(=N)N)C(=O)O)C(C)C)NC(=O)[C@H](C(C)C)NC(=O)[C@@H]2CSSC[C@H](NC(=O)[C@H](Cc3ccc(O)cc3)NC1=O)C(=O)N[C@@H](CCCNC(=N)N)C(=O)N[C@@H](CCCNC(=N)N)C(=O)N[C@@H](CCCNC(=N)N)C(=O)N[C@@H](Cc1ccccc1)C(=O)N2` [4:4 PG-1-OH] (H-GGRLCYCRRRFCVCVGRR-OH; disulfide 5-14, 7-12; N-terminus assumed) as the molecule, how does the “percent lower selectivity index than the amidated analogs (4:4 PG-1-NH and PG-1)” value (human erythrocytes; from selectivity indices) read?
A: about 50%

Q: Which cyclisation yield [1] does the source give for “PEPTIDE1{G.V.C.R.C.L.C.R.R.G.V.C.R.C.L.C.R.R}$PEPTIDE1,PEPTIDE1,1:R1-18:R2|PEPTIDE1,PEPTIDE1,3:R3-16:R3|PEPTIDE1,PEPTIDE1,5:R3-14:R3|PEPTIDE1,PEPTIDE1,7:R3-12:R3$$$V2.0” here?
A: 90%

Q: And the “final HPLC purity” value [1]?
A: more than 99%

Q: Which “fold less selective than RTD-2” value (human erythrocytes; from selectivity indices) does the source give for `CC(C)C[C@H](NC(=O)[C@H](CCCNC(=N)N)NC(=O)CNC(=O)CNC(=O)[C@@H](N)CCCNC(=N)N)C(=O)N[C@H]1CSSC[C@@H](C(=O)N[C@H](C(=O)NCC(=O)N[C@@H](CCCNC(=N)N)C(N)=O)C(C)C)NC(=O)[C@H](C(C)C)NC(=O)[C@@H]2CSSC[C@H](NC(=O)[C@H](Cc3ccc(O)cc3)NC1=O)C(=O)N[C@@H](CCCNC(=N)N)C(=O)N[C@@H](CCCNC(=N)N)C(=O)N[C@@H](CCCNC(=N)N)C(=O)N[C@@H](Cc1ccccc1)C(=O)N2` [PG-1, reference compound] here?
A: 7 fold

Q: And the “selectivity relative to RTD-1 and 3” value (human erythrocytes; from selectivity indices)?
A: three-fold less selective

Q: With `CC[C@H](C)[C@@H]1NC(=O)[C@@H]2CSSC[C@H](NC(=O)[C@H](CCCNC(=N)N)NC(=O)[C@@H]3CSSC[C@H](NC1=O)C(=O)N[C@@H]([C@@H](C)O)C(=O)N[C@@H](CCCNC(=N)N)C(=O)NCC(=O)N[C@@H](Cc1ccccc1)C(=O)N3)C(=O)N[C@@H]([C@@H](C)CC)C(=O)N[C@H]1CSSC[C@H](NC(=O)[C@H](Cc3ccccc3)NC(=O)CNC(=O)[C@H](CCCNC(=N)N)NC(=O)[C@H]([C@@H](C)O)NC1=O)C(=O)N[C@@H](CCCNC(=N)N)C(=O)N2` [RTD-2] (cyclo(CICTRGFCRCICTRGFCR); disulfide 1-10, 3-8, 12-17) as the molecule, how does the “fold more selective than RTD-1 and RTD-3” value (human erythrocytes; from selectivity indices) read?
A: 2- to 2.5 fold

Q: What about the “Selective index (H/M)” value (human erythrocytes) of the same molecule?
A: 14.3

Q: With `CC(C)C[C@H](NC(=O)[C@H](CCCNC(=N)N)NC(=O)CNC(=O)CNC(=O)[C@@H](N)CCCNC(=N)N)C(=O)N[C@H]1CSSC[C@@H](C(=O)N[C@H](C(=O)NCC(=O)N[C@@H](CCCNC(=N)N)C(=O)O)C(C)C)NC(=O)[C@H](C(C)C)NC(=O)[C@@H]2CSSC[C@H](NC(=O)[C@H](Cc3ccc(O)cc3)NC1=O)C(=O)N[C@@H](CCCNC(=N)N)C(=O)N[C@@H](CCCNC(=N)N)C(=O)N[C@@H](CCCNC(=N)N)C(=O)N[C@@H](Cc1ccccc1)C(=O)N2` [PG-1-OH] (H-RGGRLCYCRRRFCVCVGR-OH; disulfide 6-15, 8-13; N-terminus assumed) as the molecule, how does the “percent lower selectivity index than the amidated analogs (4:4 PG-1-NH and PG-1)” value (human erythrocytes; from selectivity indices) read?
A: about 50%

Q: For `CC(C)C[C@@H]1NC(=O)[C@H](CCCNC(=N)N)NC(=O)CNC(=O)CNC(=O)[C@H](CCCNC(=N)N)NC(=O)[C@H](CCCNC(=N)N)NC(=O)CNC(=O)[C@H](C(C)C)NC(=O)[C@@H]2CSSC[C@H](NC1=O)C(=O)N[C@@H](Cc1ccc(O)cc1)C(=O)N[C@H]1CSSC[C@H](NC(=O)[C@H](Cc3ccccc3)NC(=O)[C@H](CCCNC(=N)N)NC(=O)[C@H](CCCNC(=N)N)NC(=O)[C@H](CCCNC(=N)N)NC1=O)C(=O)N[C@@H](C(C)C)C(=O)N2` [cPG-1] (cyclo(GGRLCYCRRRFCVCVGRR); disulfide 5-14, 7-12), which “percent lower selectivity index than the amidated analogs (4:4 PG-1-NH and PG-1)” value (human erythrocytes; from selectivity indices) is on record?
A: about 50%

Q: Which cyclisation yield [1] does the source give for “PEPTIDE1{G.F.C.R.C.I.C.T.R.G.F.C.R.C.I.C.T.R}$PEPTIDE1,PEPTIDE1,1:R1-18:R2|PEPTIDE1,PEPTIDE1,3:R3-16:R3|PEPTIDE1,PEPTIDE1,5:R3-14:R3|PEPTIDE1,PEPTIDE1,7:R3-12:R3$$$V2.0” here?
A: 60%

Q: And the “final HPLC purity” value [1]?
A: more than 99%
